Assay results published in patent publication US20230321189A1, “THERAPEUTIC AGENTS, PHARMACEUTICAL COMPOSITIONS, AND ASSOCIATED BIOMARKERS BASED ON TRK-B” (INSTITUTO DE MEDICINA MOLECULAR JOÃO LOBO ANTUNES, priority 2020, published 2023).
For some of these results: Part of at least one peptide drawing is inferred or uncertain, most often the ends. For some of these results: At least one compound was matched to its structure with a doubt left. Where a SMILES comes first, the peptide text is derived from it. Where no end group is shown, it is not given here. The star is where a group is joined. Cbz = O=C(OCc1ccccc1)*

Chains of the proteins cited; added tags and fusions are not shown. Residues count along the entry.
UniProt Q63604, 32-821: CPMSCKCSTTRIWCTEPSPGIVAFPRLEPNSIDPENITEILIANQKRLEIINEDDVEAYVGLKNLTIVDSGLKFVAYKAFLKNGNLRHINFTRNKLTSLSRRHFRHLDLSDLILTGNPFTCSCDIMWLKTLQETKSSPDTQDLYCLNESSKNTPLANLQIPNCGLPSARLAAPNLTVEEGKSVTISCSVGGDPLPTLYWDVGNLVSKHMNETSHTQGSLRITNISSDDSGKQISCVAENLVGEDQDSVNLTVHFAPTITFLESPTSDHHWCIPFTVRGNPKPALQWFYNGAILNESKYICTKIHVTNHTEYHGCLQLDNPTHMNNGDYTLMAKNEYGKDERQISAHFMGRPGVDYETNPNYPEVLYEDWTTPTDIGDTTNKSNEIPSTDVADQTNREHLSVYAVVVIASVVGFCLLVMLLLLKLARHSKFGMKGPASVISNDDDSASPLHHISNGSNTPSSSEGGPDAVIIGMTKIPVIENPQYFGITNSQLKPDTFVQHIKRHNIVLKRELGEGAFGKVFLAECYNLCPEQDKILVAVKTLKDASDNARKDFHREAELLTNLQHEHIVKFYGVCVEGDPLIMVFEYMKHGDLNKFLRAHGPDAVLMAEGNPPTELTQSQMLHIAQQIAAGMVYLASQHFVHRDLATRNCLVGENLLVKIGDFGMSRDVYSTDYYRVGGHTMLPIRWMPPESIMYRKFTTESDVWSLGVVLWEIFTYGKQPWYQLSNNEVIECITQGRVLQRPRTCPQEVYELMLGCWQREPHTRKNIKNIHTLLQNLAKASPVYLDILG

Assays:
hippocampal slices = test: LTP saturation (three θ-bursts 1 h apart) in hippocampal slices; format: cell-based, rat; conditions: MDL28170 20 μM; Aβ 200 nM
TrkB-FL [1] = target: T1, TrkB-FL (Rattus norvegicus, UniProt Q63604); test: Aβ-driven TrkB-FL cleavage in primary neuronal cultures (Western blot); format: cell-based; set-up: Western-blot of neuronal cultures; endogenous in cells; host or cells: primary cortical neuronal cultures from E17-E18 embryos; conditions: TAT-TrkB 5 and 20 μM incubated 1 h or 4 h before Aβ
Experimental: Primary neuronal cultures were prepared as routinely in the lab^6. Briefly, animals were deeply anesthetized with isoflurane ([…], Barcelona, Spain) in an anaesthesia chamber before being sacrificed by decapitation. Embryos (E17-E18) were rapidly removed from the uterus and brains were dissected and placed in cold Ca^2+- and Mg^2+-free Hank's Balanced Salt Solution (HBSS) (Gibco, Paisley, UK). Cerebral cortex was isolated, mechanically fragmented and digested with 0.025% (wt/vl) trypsin solution (Gibco, Paisley, UK) in HBSS for 15 min at 37° C. After digestion, cells were precipitated by centrifugation at 1200 rpm. The supernatant was removed and 20% Fetal Bovine Serum (FBS) (Gibco, Paisley, UK) was added to HBSS. […] To obtain single cells and avoid cellular clusters or tissue fragments, the suspension was filtered with a nylon filter (BD FalconTM Cell Strainer 70 μM, Thermo Fisher Scientific, Waltham, MA, USA) and cell density was determined by counting cells in a 0.4% trypan blue solution using a hemacytometer. […] Finally, immunoreactivity was detected using the ECL system (ECL chemiluminescence detection system, GE Healthcare), an appropriate exposure time in a ChemiDoc (Bio-Rad, XRS^+) and quantified by the digital densitometry tool of ImageJ 1.45 software (Bethesda, MD, USA). […]

TrkB-FL [2] = target: T1, TrkB-FL; test: Calpain in vitro assay, adult rat brain cortex homogenate (Western blot); format: biochemical; set-up: rat cortical tissue or neuronal cultured cells were homogenized in Radio Immuno Precipitation Assay (RIPA) buffer; from tissue; host or cells: adult rat brain cortex homogenate (100 μg protein); conditions: TAT-TrkB 20, 50 μM, m-calpain 1 or 2 EU, CaCl2 2 mM
Experimental: For calpain enzymatic assays, rat cortical tissue or neuronal cultured cells were homogenized in Radio Immuno Precipitation Assay (RIPA) buffer, containing 50 mM Tris-HCl [pH=7.5], 150 mM NaCl, 5 mM ethylenediamine tetra-acetic acid, 0.1% sodium dodecyl sulfate (SDS), 1% [v/vl] Triton X-100, protease inhibitors (Roche, Penzberg, Germany) and phosphatase inhibitors (10 mM NaF and 5 mM Na3VO4). For tissue homogenization, Vibracell VC250 Ultrasonic Liquid Processor was used (Sonics & Materials, Inc, CT, USA). Protein concentration was measured using Bio-Rad DC reagent (Bio-Rad Laboratories, Berkeley, CA, USA) after homogenates clarification by centrifugation (16,000 g, 4° C., 10 min). The purified rat m-calpain (1 or 2 enzymatic units, EU) (Calbiochem, San Diego, CA, USA) was incubated for 30 min at 25° C. in a 100 μL final volume of lysis buffer containing the homogenate protein (100 μg for rat brain cortex experiments and 65 μg for neuronal cultured cells), 2 mM of CaCl2 and TAT-TrkB peptide (5, 20 or 50 μM). […] Finally, immunoreactivity was detected using the ECL system (ECL chemiluminescence detection system, GE Healthcare), an appropriate exposure time in a ChemiDoc (Bio-Rad, XRS^+) and quantified by the digital densitometry tool of ImageJ 1.45 software (Bethesda, MD, USA). […]

TrkB-FL [3] = target: T1, TrkB-FL; test: Calpain in vitro assay, neuronal cultures lysate (Western blot); format: biochemical; set-up: rat cortical tissue or neuronal cultured cells were homogenized in Radio Immuno Precipitation Assay (RIPA) buffer; from tissue; host or cells: adult rat brain cortex homogenate (100 μg protein); conditions: DIV8 neuronal cultures lysate; 50 μM TAT-TrkB; m-calpain 1 or 2 EU, CaCl2 2 mM

Compound	LTP impairment caused by oligomer- and fibril-enriched Aβ (hippocampal slices)	Aβ-driven cleavage of TrkB-FL (TrkB-FL [1])	calpain-mediated cleavage of TrkB-FL (TrkB-FL [2])	TrkB-FL cleavage and TrkB-ICD formation by m-calpain (TrkB-FL [3])
CC(C)[C@H](NC(=O)OCc1ccccc1)C(=O)N[C@H](C=O)Cc1ccccc1 [MDL28170, reference compound] (Cbz-Val-Phe-aldehyde)	prevent LTP impairment	–	–	–
YGRKKRRQRRRKKFGITNSQLKP [TAT-TrkB]	–	prevented	prevented	prevented
